The results in this text go back to US20140349871A1.

Amino acid sequences for entries named in this document (tags omitted). A change or cut given only in a name is not applied to a line headed by its entry.
UniProt P15924: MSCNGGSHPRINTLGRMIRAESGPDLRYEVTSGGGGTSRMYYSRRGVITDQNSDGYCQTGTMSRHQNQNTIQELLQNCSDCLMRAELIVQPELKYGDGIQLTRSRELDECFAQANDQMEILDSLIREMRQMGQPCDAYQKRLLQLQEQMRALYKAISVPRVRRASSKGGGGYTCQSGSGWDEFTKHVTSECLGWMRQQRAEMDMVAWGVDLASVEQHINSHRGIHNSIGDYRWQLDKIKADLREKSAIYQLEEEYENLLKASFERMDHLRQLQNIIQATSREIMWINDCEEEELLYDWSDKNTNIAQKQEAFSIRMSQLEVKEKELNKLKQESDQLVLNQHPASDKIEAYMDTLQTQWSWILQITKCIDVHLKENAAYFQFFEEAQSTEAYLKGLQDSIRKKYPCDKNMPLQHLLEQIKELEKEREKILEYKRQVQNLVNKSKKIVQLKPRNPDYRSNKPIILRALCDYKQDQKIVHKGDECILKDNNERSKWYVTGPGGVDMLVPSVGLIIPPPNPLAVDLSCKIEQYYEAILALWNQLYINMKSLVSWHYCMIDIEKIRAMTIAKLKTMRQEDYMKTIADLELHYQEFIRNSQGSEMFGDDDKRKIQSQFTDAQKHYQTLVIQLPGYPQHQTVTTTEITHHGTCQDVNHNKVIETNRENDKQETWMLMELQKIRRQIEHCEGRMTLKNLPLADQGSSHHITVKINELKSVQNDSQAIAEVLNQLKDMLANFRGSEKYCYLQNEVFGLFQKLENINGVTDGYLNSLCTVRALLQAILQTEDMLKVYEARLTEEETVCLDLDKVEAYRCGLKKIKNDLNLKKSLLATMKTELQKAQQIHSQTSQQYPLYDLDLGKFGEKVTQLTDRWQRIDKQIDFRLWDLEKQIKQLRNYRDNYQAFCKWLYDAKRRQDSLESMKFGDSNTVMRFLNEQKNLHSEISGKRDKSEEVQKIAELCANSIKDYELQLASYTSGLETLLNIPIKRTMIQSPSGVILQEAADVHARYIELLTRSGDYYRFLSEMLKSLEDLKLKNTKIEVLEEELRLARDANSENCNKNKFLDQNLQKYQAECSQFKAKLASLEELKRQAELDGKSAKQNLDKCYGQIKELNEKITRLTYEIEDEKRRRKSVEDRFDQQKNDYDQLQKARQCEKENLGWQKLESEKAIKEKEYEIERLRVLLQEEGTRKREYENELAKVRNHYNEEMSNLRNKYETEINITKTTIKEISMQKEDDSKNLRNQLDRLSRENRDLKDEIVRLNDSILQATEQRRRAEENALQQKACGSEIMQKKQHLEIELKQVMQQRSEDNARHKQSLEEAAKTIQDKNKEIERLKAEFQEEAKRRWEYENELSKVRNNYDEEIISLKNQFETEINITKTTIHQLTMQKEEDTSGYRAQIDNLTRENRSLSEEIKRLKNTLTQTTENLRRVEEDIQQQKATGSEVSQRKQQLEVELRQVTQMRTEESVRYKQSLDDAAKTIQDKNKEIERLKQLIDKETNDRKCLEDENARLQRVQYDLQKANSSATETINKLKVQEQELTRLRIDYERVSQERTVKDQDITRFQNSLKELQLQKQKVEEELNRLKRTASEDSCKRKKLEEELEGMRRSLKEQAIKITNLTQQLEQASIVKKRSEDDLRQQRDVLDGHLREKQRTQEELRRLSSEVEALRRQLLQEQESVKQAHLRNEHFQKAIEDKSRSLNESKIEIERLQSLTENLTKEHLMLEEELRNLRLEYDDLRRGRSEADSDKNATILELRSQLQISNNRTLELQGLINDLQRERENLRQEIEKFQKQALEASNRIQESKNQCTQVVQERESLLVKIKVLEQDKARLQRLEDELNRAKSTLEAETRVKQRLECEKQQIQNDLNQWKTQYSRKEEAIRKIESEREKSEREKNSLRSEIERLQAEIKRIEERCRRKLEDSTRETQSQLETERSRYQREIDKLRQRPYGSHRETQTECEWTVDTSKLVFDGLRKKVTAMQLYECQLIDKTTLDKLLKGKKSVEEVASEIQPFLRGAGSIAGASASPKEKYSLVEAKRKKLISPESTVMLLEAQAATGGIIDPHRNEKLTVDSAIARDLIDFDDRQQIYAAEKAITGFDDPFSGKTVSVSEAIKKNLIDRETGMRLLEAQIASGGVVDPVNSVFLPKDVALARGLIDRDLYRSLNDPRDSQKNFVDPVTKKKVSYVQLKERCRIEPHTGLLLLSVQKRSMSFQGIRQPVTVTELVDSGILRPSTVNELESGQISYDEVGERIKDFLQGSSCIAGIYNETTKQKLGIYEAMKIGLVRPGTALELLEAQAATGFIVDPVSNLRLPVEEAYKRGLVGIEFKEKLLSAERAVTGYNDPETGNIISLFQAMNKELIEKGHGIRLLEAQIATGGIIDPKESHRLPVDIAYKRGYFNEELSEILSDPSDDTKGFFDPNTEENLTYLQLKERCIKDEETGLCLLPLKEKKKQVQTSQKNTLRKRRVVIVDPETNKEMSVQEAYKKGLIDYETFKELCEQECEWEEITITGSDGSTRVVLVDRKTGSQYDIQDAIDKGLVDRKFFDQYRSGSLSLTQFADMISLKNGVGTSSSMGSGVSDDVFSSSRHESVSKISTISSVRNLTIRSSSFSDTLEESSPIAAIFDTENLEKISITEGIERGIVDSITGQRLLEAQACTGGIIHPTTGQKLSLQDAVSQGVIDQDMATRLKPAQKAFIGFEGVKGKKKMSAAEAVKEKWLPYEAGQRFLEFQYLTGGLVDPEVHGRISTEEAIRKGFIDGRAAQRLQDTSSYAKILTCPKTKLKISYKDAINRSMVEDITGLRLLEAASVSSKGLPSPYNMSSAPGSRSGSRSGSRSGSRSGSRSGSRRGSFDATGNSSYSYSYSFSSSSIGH
UniProt Q6RYW5: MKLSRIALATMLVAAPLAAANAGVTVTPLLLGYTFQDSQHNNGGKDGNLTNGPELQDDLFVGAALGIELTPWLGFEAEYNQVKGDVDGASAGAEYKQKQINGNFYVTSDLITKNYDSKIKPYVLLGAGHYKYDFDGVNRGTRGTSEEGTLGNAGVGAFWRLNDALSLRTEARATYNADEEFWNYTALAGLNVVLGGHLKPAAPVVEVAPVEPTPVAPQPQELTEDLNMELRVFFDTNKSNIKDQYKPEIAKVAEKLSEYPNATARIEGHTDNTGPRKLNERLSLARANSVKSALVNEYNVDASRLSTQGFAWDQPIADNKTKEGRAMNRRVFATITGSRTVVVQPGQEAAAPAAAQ

These are yes or no findings as the source states them, for the method shown. Some entries that bind do so weakly or less than the wild type.

The experiment deals with desmoplakin (human) (UniProt P15924). Briefly: PIR cross-linking and ReACT of A. baumannii cells incubated with human bronchial epithelial cells.

OmpA (from UniProt Q6RYW5 20-356): the binding entry is listed as “binds”.
